Test results as given in patent US20090081195A1, “Inhibitors of Ste20-like Kinase (SLK) and Methods of Modulating Cell Cycle Progression and Cell Motility” (OTTAWA HEALTH RESEARCH INSTITUTE, priority 2005, published 2009).
These are yes or no findings as the source states them, for the method shown. In cells and extracts the contact can be indirect. Binding calls can cover weak binding; strength is not graded here.

Biological target: α-tubulin
Assay: GST pulldown

binding	Binder
binds	Ldb2 (construct not stated) (protein, mouse, UniProt O55203 1-373, looked up) MSSTPHDPFYSSPFGPFYRRHTPYMVQPEYRIYEMNKRLQSRTEDSDNLWWDAFATEFFEDDATLTLSFCLEDGPKRYTIGRTLIPRYFSTVFEGGVTDLYYILKHSKESYHNSSITVDCDQCAMVTQHGKPMFTKVCTEGRLILEFTFDDLMRIKTWHFTIRQYRELVPRSILAMHAQDPQVLDQLSKNITRMGLTNFTLNYLRLCVILEPMQELMSRHKTYNLSPRDCLKTCLFQKWQRMVAPPAEPTRQPTTKRRKRKNSTSSTSNSSAGNTTNSAGSKKKTPAASLSLATQVPDVMVVGEPTLMGGEFGDEDERLITRLENTQYDAANGMDDEEDFNNSPALGNNSPWNSKPPATQETKSENAPPQASQ
no binding	Ldb1 (construct not stated) (protein, mouse, UniProt P70662-3 1-375, looked up) MLDRDVGPTPMYPPTYLEPGIGRHTPYGNQTDYRIFELNKRLQNWTEECDNLWWDAFTTEFFEDDAMLTITFCLEDGPKRYTIGRTLIPRYFRSIFEGGATELYYVLKHPKEAFHSNFVSLDCDQGSMVTQHGKPMFTQVCVEGRLYLEFMFDDMMRIKTWHFSIRQHRELIPRSILAMHAQDPQMLDQLSKNITRCGLSNSTLNYLRLCVILEPMQELMSRHKTYSLSPRDCLKTCLFQKWQRMVAPPAEPARQQPSKRRKRKMSGGSTMSSGGGNTNNSNSKKKSPASTFALSSQVPDVMVVGEPTLMGGEFGDEDERLITRLENTQFDAANGIDDEDSFNNSPALGANSPWNSKPPSSQESKSENPTSQASQ
